The list shows a part of the results.
Target: OsWRKY34 (Oryza sativa, UniProt Q0JBA9 1-250)
Test: protein-binding microarray (RPBM); PBS, 2% BSA, 51.3 ng/ul salmon testes DNA, 50 uM zinc acetate, 200 nM TF, 25 C, 1 h; high values mean tight binding
Conditions: protein: recombinant; tags: N-terminal polyhistidine and DsRed monomer fusion (pET32a); label: CyDye5-dUTP incorporated in the synthesized complementary strand; 3' TTTTT single-stranded linker to array surface; dsDNA, one strand shown
Outline: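 Using Ni–NTA, transcription factors fused N-terminally to polyhistidine and DsRed were purified after expression in E. coli BL21-CodonPlus. These were incubated at 200 nM with a blocked, double-stranded custom Agilent array for 1 h at 25 °C in a buffer containing 50 µM zinc acetate, and the array was washed. The binding signal is per-feature fluorescence intensity (arbitrary units) on an Axon 4000B scanner.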

By UniProt entry, the sequences of proteins in these tests, tags left out.
UniProt Q0JBA9, entry or part of it: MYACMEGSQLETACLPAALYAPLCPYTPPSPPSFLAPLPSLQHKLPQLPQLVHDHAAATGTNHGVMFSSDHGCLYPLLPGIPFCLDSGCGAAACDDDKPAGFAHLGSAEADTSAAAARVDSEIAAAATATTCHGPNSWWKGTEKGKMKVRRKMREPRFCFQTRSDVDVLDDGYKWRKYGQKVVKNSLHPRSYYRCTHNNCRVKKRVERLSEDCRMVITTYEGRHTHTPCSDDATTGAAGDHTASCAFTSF

Sequence	binding signal
GTAGCTATAAACCCAGCGCGCCGTGAAGGCCTCTCTTTCCCGGAGTCACCTAGTGCAG	8920 fluorescence intensity (a.u.)
CGTGCACGTTCACGCCTTCTATGCTTCACACCAACGTTCACGGAGTCACCTAGTGCAG	8850 fluorescence intensity (a.u.)
TTAGCTTGTATCCTGTGGCCATTGATGCTGCTTTCTCTGTCGGAGTCACCTAGTGCAG	8570 fluorescence intensity (a.u.)
AGTACTCCTCCGTTCTAAATTAGATGTCGTTTTGATTTTTCGGAGTCACCTAGTGCAG	8570 fluorescence intensity (a.u.)
CTGATAGCCAGCCAAAAACATTTCTTCTACTATAGCTACTCGGAGTCACCTAGTGCAG	8060 fluorescence intensity (a.u.)
AATTCATCCTATGACGGCTTTACTGAACCTTGATTTATATCGGAGTCACCTAGTGCAG	8830 fluorescence intensity (a.u.)
ACACAAACTTTCAACTTTTTCTGTCACATCGTTCCAATTTCGGAGTCACCTAGTGCAG	8220 fluorescence intensity (a.u.)
CTCTACTGGTACATCCACGCTACCTCCAGCCCTCCAGCCACGGAGTCACCTAGTGCAG	8660 fluorescence intensity (a.u.)
CGCGCTCCTCTCCGCTCCTAGGATTGTTCTTTTTTTTAAACGGAGTCACCTAGTGCAG	8390 fluorescence intensity (a.u.)
TCCGCTACCGTATTCGTTCCGTCTCGTATTCGCTCCGTTTCGGAGTCACCTAGTGCAG	8940 fluorescence intensity (a.u.)
ATATACTTCTCTCTTGGTTGATATTACTTATCGTTCTGAACGGAGTCACCTAGTGCAG	8580 fluorescence intensity (a.u.)
GGTCTCACCAGACTGTGACACATTTTTCCCACCGGCTAACCGGAGTCACCTAGTGCAG	9040 fluorescence intensity (a.u.)
TAATTTGGGTGCACCGTGCACCTACTCTCTATGACCATCACGGAGTCACCTAGTGCAG	8850 fluorescence intensity (a.u.)
GACAGTTCATTTATATCCGGCCCGTTAGAGGTGTTACTCACGGAGTCACCTAGTGCAG	13000 fluorescence intensity (a.u.)
ATCTTTTTACCCAATTCTTGATCACTCTTCTTGGTCGTTCCGGAGTCACCTAGTGCAG	8060 fluorescence intensity (a.u.)
GTATCGGTTTTTATTTAGAACTGGCTCCTATCTCTCCATACGGAGTCACCTAGTGCAG	9040 fluorescence intensity (a.u.)
TAAATACCATCACTACCTTTCTGCTTGTTAATTCCAATTGCGGAGTCACCTAGTGCAG	8440 fluorescence intensity (a.u.)
CTATAAGTTTCTGTGCTCAACTTTGATCGTCCGTCTTATTCGGAGTCACCTAGTGCAG	9880 fluorescence intensity (a.u.)
TTTTTGCGGTGTCCCTAGTTAATTACACTTTTTTGGATGTCGGAGTCACCTAGTGCAG	8590 fluorescence intensity (a.u.)
CTAATGGTTTACCTCGTTTTGCGTATCTTCCCAATCTTCTCGGAGTCACCTAGTGCAG	8910 fluorescence intensity (a.u.)
ATGCTCATCACCCACCGGCATTCTACCTGCATATTGTTTTCGGAGTCACCTAGTGCAG	13900 fluorescence intensity (a.u.)
ATAATATACATTTTCTTTTTTTCTCATATTTTCATTATAACGGAGTCACCTAGTGCAG	10200 fluorescence intensity (a.u.)
CCTCATTATTTTGTTCCAAGGGATTCTAATTTTCCTTCTACGGAGTCACCTAGTGCAG	9060 fluorescence intensity (a.u.)
TTATTTGATCGTTTTACTGAGCGGTTTGTTAACTCGAACCCGGAGTCACCTAGTGCAG	8750 fluorescence intensity (a.u.)
GATGACACAGTAGTACTCCTAGGCACGTACGTACTTTCTCCGGAGTCACCTAGTGCAG	8880 fluorescence intensity (a.u.)
ATGCTCCTACTTTCCTTTGCTGTATATATTACTCCATTTGCGGAGTCACCTAGTGCAG	8260 fluorescence intensity (a.u.)
TAGTGTTCCCTTTGTTCATATTTTCATGTTTTCTCTAACACGGAGTCACCTAGTGCAG	15200 fluorescence intensity (a.u.)

Sequence	binding signal
TAGCGTATGACAATGTTATTCATGTGTGCGGTTTTTTATACGGAGTCACCTAGTGCAG	8600 fluorescence intensity (a.u.)
GCCACTTCCCACCACCTCCTCTCCTTCCCTCGCTCTGCTACGGAGTCACCTAGTGCAG	8790 fluorescence intensity (a.u.)
TTTTTTTGCCTCGCCACGTAGAACATTTGAACGCATGTACCGGAGTCACCTAGTGCAG	8390 fluorescence intensity (a.u.)
ACCCACCGCCGCAACACGCGCTCCACCGCCAACACATCGCCGGAGTCACCTAGTGCAG	9720 fluorescence intensity (a.u.)
TTAGCTTCTTTCCTTAGTTTTTTTTTCTCTAAAGGGGCATCGGAGTCACCTAGTGCAG	8650 fluorescence intensity (a.u.)
TGATGACTCTCACCTGACCCGCGATCCTCCGGTGGGCCCACGGAGTCACCTAGTGCAG	11500 fluorescence intensity (a.u.)
GAGACCTGATGCCACGGAAAGCCCATGGGCCTTCGTTGACCGGAGTCACCTAGTGCAG	11600 fluorescence intensity (a.u.)
AAGAGTCTATACATGTATCAGCATATATTAATTATATATACGGAGTCACCTAGTGCAG	8330 fluorescence intensity (a.u.)
TACTGTCACAGTAGTTCGGAGGGTAATTCGTACTTTTTCCCGGAGTCACCTAGTGCAG	8870 fluorescence intensity (a.u.)
TTAGTTGTAAAAAATTTTATCCCTACATGTTACATCGAATCGGAGTCACCTAGTGCAG	8120 fluorescence intensity (a.u.)
TTGCTTATTGTAGTTATTGGAAGATTCTTAATTTCTTTCTCGGAGTCACCTAGTGCAG	8280 fluorescence intensity (a.u.)
GGGTGTGAAGTGTACTCTCTTTTTTTTTAACGTTTTAGATCGGAGTCACCTAGTGCAG	11400 fluorescence intensity (a.u.)
TCCACCCATCCTCATCATTATCCTCTCTCTCCTCTCTCACCGGAGTCACCTAGTGCAG	9640 fluorescence intensity (a.u.)
CACTGCTTCTCACCCAACTCGCGCGCGCCATTCCTTGCCTCGGAGTCACCTAGTGCAG	11600 fluorescence intensity (a.u.)
ATTTGTAAGTATCAACCATCATATCATTCTCTCTCTTTTACGGAGTCACCTAGTGCAG	8130 fluorescence intensity (a.u.)
GTGGGAGCAAGTGGTGGGCAATATGCCATGTAGTAGTAGACGGAGTCACCTAGTGCAG	9760 fluorescence intensity (a.u.)
TGTTATTATGTTTCAGGAATACTTCCTCTGGTTATAAATACGGAGTCACCTAGTGCAG	9850 fluorescence intensity (a.u.)
TTGGCCAAAGTCAAACTGTTTCAAGTTTGACTAAGTTTATCGGAGTCACCTAGTGCAG	13200 fluorescence intensity (a.u.)
CCACGCTCCGGGCCGTTGTCTTCTGTGTCGCTTCGAATTCCGGAGTCACCTAGTGCAG	9760 fluorescence intensity (a.u.)
TTGAGTCTGCTTCTATTTTTCTATTCGAGCCCTTTTTCCTCGGAGTCACCTAGTGCAG	9400 fluorescence intensity (a.u.)
TACACACACAAACTTTCAACTTTTCTGTCATATCGTTCCACGGAGTCACCTAGTGCAG	9160 fluorescence intensity (a.u.)
CCCCTTCGTCGCCGCCGCAATCACACGCACACCCTTTACCCGGAGTCACCTAGTGCAG	9770 fluorescence intensity (a.u.)
CAGCTTCCTAGATATCCGGCAGAGCACTACTACTATTATCCGGAGTCACCTAGTGCAG	8300 fluorescence intensity (a.u.)
TCGTACGCCTCGGCTGTACTTTGATCCCACCACCACCACCCGGAGTCACCTAGTGCAG	9210 fluorescence intensity (a.u.)
TGTGACCTCTGTGTGTGTGTTGCTTCTCCTGTTCATCACACGGAGTCACCTAGTGCAG	11100 fluorescence intensity (a.u.)
CCACTCGCTCTCCTCACAGCCACAGCTCGCCATCGTCGTCCGGAGTCACCTAGTGCAG	9040 fluorescence intensity (a.u.)
CATATCTGATGAAGCCACCTACACCATTTGTCCTATTCTGCGGAGTCACCTAGTGCAG	9190 fluorescence intensity (a.u.)

Three records picked at random from the list so far:
Sequence	binding signal
TACACACACAAACTTTCAACTTTTCTGTCATATCGTTCCACGGAGTCACCTAGTGCAG	9160 fluorescence intensity (a.u.)
CCACTCGCTCTCCTCACAGCCACAGCTCGCCATCGTCGTCCGGAGTCACCTAGTGCAG	9040 fluorescence intensity (a.u.)
TACTGTCACAGTAGTTCGGAGGGTAATTCGTACTTTTTCCCGGAGTCACCTAGTGCAG	8870 fluorescence intensity (a.u.)

Source: paper PMC7819943, “Rice protein-binding microarrays: a tool to detect cis-acting elements near promoter regions in rice”
